The values below come from the supplement of paper PMC12764529.

A short description of data set [1]: folding stability dG unfold from chymotrypsin proteolysis; higher = more stable. On the procedure:
(§1)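 Folding stability of de novo designed mini-proteins (<80 aa, no Cys; designed by TrROS, TrMRF, ProteinMPNN and the joint model) was measured by cDNA display proteolysis with trypsin and chymotrypsin. Each protease was used at 11 concentrations in a threefold dilution series plus a no-protease condition. K50 was inferred by Bayesian fitting of sequencing counts, and dG unfold was derived against a sequence-predicted unfolded-state K50 (Tsuboyama et al. method). Sequences shown include variable-length N-terminal GS-type padding (SAGGSAGG...) inside a display construct carrying a PA tag. Rows were kept only if the AF2 dimer inter-PAE was >15, to exclude likely homo-oligomers.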

A short description of data set [2]: folding stability dG unfold (combined trypsin and chymotrypsin); higher = more stable. The method, then:
as §1

± gives the half width of the 95% confidence interval. For many entries, trypsin and chymotrypsin gave values far apart.

With “SAEREVTVTRTRRRDGRRTVTETRRVRVRLRLRVTLPDGRELTVELPPALRALSPELQEAARRLAEALLSAG [r14_555_TrROS_Hall]”, the “folding stability dG unfold” value in data set [1] was 2.76 ± 0.053 kcal/mol; in data set [2], 2.15 ± 0.071 kcal/mol.
For the sequence “SAGGSAGGSAGMTITLPNGTVVTVERDESTGVWTITFPDGTTRTLELPDATLAEIEAALASAGGSAGGSAGG [r11_729_JUSTAS]”, the “folding stability dG unfold” value came out at 3.413 ± 0.018 kcal/mol in data set [1] and 3 ± 0.054 kcal/mol in data set [2].
For “SAGGSAITIRPEELLRLAREPGLEVEFEPLPDGRLVLTIYDPSTGARIDVVVLPPPLGGVVPRPVPSAGGSA [r15_442_TrMRF]”, in that order: 2.27 ± 0.032 kcal/mol and 1.76 ± 0.12 kcal/mol.
For “SAGGSAGGSMKPLGQGDFEDPDGWKIKISMYPDGWFRIEIYDKNGKPKETIPVPANDLPDILKSAGGSAGGS [r12_664_TrROS]”, in that order: 1.43 ± 0.053 kcal/mol and 1.21 ± 0.064 kcal/mol.
In the same order, the values of “SAGGSAGGSAREELVRRAAEEGLPGVRVLAIPPGNREVPAIVEGDKVYSYDLPDDAEVVVASAGGSAGGSAG [r3_244_TrMRF]” are 0.408 ± 0.08 kcal/mol and -0.0679 ± 0.086 kcal/mol.
With “MPDISRAEIKALAEKLGLPVPDGTITIKFTYGDKTITVPVDAKKDITLGDIVEAIKKKNPNIKKIEIVAEPS [r1_135_TrMRF]”, the “folding stability dG unfold” value came out at 0.808 ± 0.08 kcal/mol in data set [1] and 0.907 ± 0.077 kcal/mol in data set [2].
For the sequence “SAGGSAGGSAGAVARVVLEDGGEVEILLEPDEPLTVEELERRLVIPPGRRARIARVEILPASAGGSAGGSAG [r3_465_TrMRF]”, the “folding stability dG unfold” value turned out to be 1.13 ± 0.036 kcal/mol in data set [1] and 0.547 ± 0.079 kcal/mol in data set [2].
In the same order, the values of “SAGGSAGGSAATVGEATLPDGSKVLVVTLPRADGRVLAVAALPDGTVIATADLATGRVTVFPASAGGSAGGS [r20_159_TrMRF]” are 1.21 ± 0.075 kcal/mol and 0.656 ± 0.093 kcal/mol.
For “SAAAPEAVEAARAVREALERTRPIHVLVRLPDGSLRSLGPVLRLGPDIPPSVLVPALLELDADEVLIFGSAG [r14_318_TrMRF]”, in that order: 1.55 ± 0.12 kcal/mol and 0.866 ± 0.2 kcal/mol.
In the same order, the values of “SAGGSAGGSAGGMTTVRRFDPTADPETLAAALPDDVVEVTVDRSPALEAAGGVAVSATRASAGGSAGGSAGG [r11_1002_JUSTAS]” are 1.09 ± 0.02 kcal/mol and 0.527 ± 0.058 kcal/mol.
In the case of “SAGGSFIKITTKLPNRKIEIPIPDAEIEVEGNTVTITFPPGNAEEVKKAVLEASDEVEITEVKIIDESAGGS [r8_490_JUSTAS]”, the “folding stability dG unfold” value in data set [1] was found to be 0.871 ± 0.026 kcal/mol; in data set [2], 0.557 ± 0.087 kcal/mol.
In the same order, the values of “SAGGSAGGSRVGRLEVFPGPGRVLAYFPETGALAVVDLPPDGPARITVYRPGTGEPVVLPAPLSAGGSAGGS [r12_55_TrMRF]” are 1.58 ± 0.052 kcal/mol and 0.955 ± 0.068 kcal/mol.
In the same order, the values of “SAGGSAGGEERPLRIPAAPVRALARRLPPAPRLVVLARSSVPGRYYIAVIDLRTGEIRVFEADLSAGGSAGG [r6_465_TrMRF]” are 3.599 ± 0.032 kcal/mol and 2.91 ± 0.079 kcal/mol.
In the same order, the values of “SRPPEETLTLTFEQEIVPGDPAAVAAAIEAARAAARAALAEAGLPDVAEVRVEEVEVDPEGRVRVTVRVASA [r9_754_JUSTAS]” are 1.1 ± 0.05 kcal/mol and 0.7 ± 0.045 kcal/mol.
As to “SAGGSAGGSAGSIEEALKKLSPTKSAIIKVKNPDGTEITVKVSTSYIPEKGEIKYPIELASAGGSAGGSAGG [r11_343_JUSTAS]”, the results for the “folding stability dG unfold” value in data set [1] and in data set [2] were 1.38 ± 0.062 kcal/mol and 0.704 ± 0.24 kcal/mol, respectively.
In the same order, the values of “SAGGSAGGSAGEPVTVRVTAPDGGSRTITIPRETLIEAGITPSDIARALAELTGAEVETTSAGGSAGGSAGG [r11_829_TrMRF]” are 1.27 ± 0.035 kcal/mol and 0.783 ± 0.08 kcal/mol.
“SAGGSAGGSAGKIRIHVPPEMPAEEVANEIQDELREENPGNGYPIKGVEISPGDSLEDIISAGGSAGGSAGG [r17_43_TrROS]”: the “folding stability dG unfold” value in data set [1] is 1.05 ± 0.064 kcal/mol; in data set [2], 0.307 ± 0.19 kcal/mol.
For “SAGGGSSVSSRTLTTPDGGTLTVNNMTNPGSSITATFYNPATGVSVPLPFTSESEADAALAALAAALSAGGS [r16_736_JUSTAS]”, in that order: 1.02 ± 0.098 kcal/mol and 0.494 ± 0.087 kcal/mol.
In the same order, the values of “SAGGSARLVSRSPAPVLRYEFPLPSGERLRVDVHPDGTVTVTRFYPERGRPERRTIPGAAIEELLGSAGGSA [r15_406_TrMRF]” are 1.29 ± 0.11 kcal/mol and 0.892 ± 0.12 kcal/mol.
Take “SAGGSAGGSAMVTVTTPVTALPEEPVRRVTVEVYDLDPAGNPVTRTEVLNPPDGAALPLGESAGGSAGGSAG [r3_53_JUSTAS]”: the results for the “folding stability dG unfold” value in data set [1] and in data set [2] were 1.32 ± 0.022 kcal/mol and 0.758 ± 0.087 kcal/mol, respectively.
For “SAGGSPAPVRRTVTQLLKVGDKLETRVVEEVVWVPEPPPPPVIPIPEDRGLNEEPVPGTRELTFDAGSAGGS [r8_28_JUSTAS]”, in that order: 0.268 ± 0.19 kcal/mol and -0.195 ± 0.37 kcal/mol.
In the same order, the values of “SAGGSAGGSAGGPVIAFPNSREKAKSITVHPDGTVTVELENGEVRTFDNVVLFHPDSDASAGGSAGGSAGGS [r10_1151_TrMRF]” are 1.72 ± 0.042 kcal/mol and 1.2 ± 0.11 kcal/mol.
In the same order, the values of “SAGGSAGGSAMRVKTVTVPPEGWEEVKKKLAEKYPFTVTGSEIGNGTVTVNFILPETVTGESAGGSAGGSAG [r3_457_JUSTAS]” are 1.11 ± 0.17 kcal/mol and 0.544 ± 0.1 kcal/mol.
With “SAGGVSSSYDPKTNLKIIEKTIDDELEIKIIKPKPRPKIVVVPLEELVAKDPSLAPEVAKDPDTEVVLPSAG [r5_958_JUSTAS]”, the “folding stability dG unfold” value came out at 1.06 ± 0.05 kcal/mol in data set [1] and 0.571 ± 0.11 kcal/mol in data set [2].
In the same order, the values of “SAGGSAGGSAGGSSARVPFPATGAVLEVRVTPDGRPRVRVFNPATGEVVEFPPGAEVGVSAGGSAGGSAGGS [r4_158_TrMRF]” are 0.762 ± 0.036 kcal/mol and 0.0259 ± 0.13 kcal/mol.
For “SAGGSAGGKKKVKYYKIKEVKIEKDEDGNYTITVKVDGKTFTITIPKEKIKPGMKLKDIVIKIKSAGGSAGG [r6_255_TrROS_Hall]”, the “folding stability dG unfold” value in data set [1] is 3.57 ± 0.038 kcal/mol; in data set [2], 3.16 ± 0.11 kcal/mol.
Turning to “SAGGSAGGSARIRFPNGYEIEVPRKRNPDGNLEITIESRNPDNPEHREMAKKIARDIADELSAGGSAGGSAG [r3_163_TrROS]”, the “folding stability dG unfold” value in data set [1] is -0.0805 ± 0.06 kcal/mol; in data set [2], -0.526 ± 0.17 kcal/mol.
For “SAGGSAGGSAGKEVTVEKVEVKPGMKIKILDTGKEIEVKEGEEILKDKNIKPGMKIEVEPSAGGSAGGSAGG [r17_289_TrROS_Hall]”, in that order: 1.32 ± 0.035 kcal/mol and 0.691 ± 0.056 kcal/mol.
For “SAGGSAGGSAGGIEKFLEKHPELKIKKEIKIKIPYKTKDGKEFEVEYKIFYLTSEDEEDSAGGSAGGSAGGS [r10_0_TrMRF]”, in that order: 2.74 ± 0.057 kcal/mol and 2.36 ± 0.07 kcal/mol.
For “SAGGSAGGSAGGDPLRIRARGPDGNQQTFPFKVDDNMNLEEFADDFAPKFGAKNVEIEPSAGGSAGGSAGGS [r10_400_TrROS]”, in that order: 1.39 ± 0.072 kcal/mol and 0.74 ± 0.2 kcal/mol.
For “SAMIIDVTVTLPPSDPAAEQQARDTAEAVAAAINAAGHPVAVTVLSVTREVLPDGTLRITIPIKVETAASAG [r14_48_JUSTAS]”, the “folding stability dG unfold” value in data set [1] was 1.92 ± 0.038 kcal/mol; in data set [2] it was 1.45 ± 0.11 kcal/mol.
For “SAGGSAGGSARPVVLTGLLPDNVLVTVAFDPETGKVSVTVTPVPPVPPLAIGPEDAARLLAGSAGGSAGGSA [r18_236_TrMRF]”, in that order: 1.15 ± 0.044 kcal/mol and 0.657 ± 0.14 kcal/mol.
